Experimental data published in PubChem BioAssay AID540256 (National Center for Advancing Translational Sciences (NCATS), 2011).
Among all 300,000 compounds or so, about 3,700 (1.2%) were called active. The inconclusive results got no clear call from the source; some entries with a clear call stand among them for comparison. Calls come from the whole dose curve; tested in HEK293 cells. Where the call is inconclusive, the potency comes from a doubtful curve fit.

Experiment: qHTS for Inhibitors of binding or entry into cells for Lassa Virus; note: nearly all actives have a fitted effect of over 50% in size
Conditions: Lassa virus pseudotype entry inhibition, cell reporter; activity change, negative = inhibition: at 37.9 µM (top of the series) unless noted
% is set by controls: 0 for no effect and ±100 for the full control effect; potency is the fitted concentration of half-maximal effect.

Structure (SMILES) | Potency | activity change, negative = inhibition
O=C(CSc1cccc[n+]1[O-])Nc1ccc([N+](=O)[O-])cc1Cl | inconclusive: 11.2 µM [activator, single point] | –
O=C(NCc1ccccc1)C1CCC(CNS(=O)(=O)c2cccs2)CC1 (stereo not drawn) | – | inactive: -1.47%
CC1N(C)c2cc(NC(=O)c3ccco3)c(P(=O)(Nc3ccc([N+](=O)[O-])cc3)N3CCOCC3)cc2C1(C)C (stereo not drawn) | inconclusive: 35.5 µM [inhibitor, single point] | –
Cc1ccc2cc(CN(CC3CCCO3)C(=O)Nc3ccccc3F)c3nnnn3c2c1 (stereo not drawn) | – | inactive: 6.13%
CNC(=O)COc1ccccc1C(=O)Nc1ccc2c(c1)oc1ccccc12 | inconclusive: 0.82 µM [activator, partial curve, poor fit] | –
Cn1cc(/C=C/C(=O)N2CCCC(C(=O)c3ccc(C(C)(C)C)cc3)C2)cn1 (stereo not drawn) | – | inactive: 5.05% [at 46.1 µM]
Clc1cccc(Cl)c1C[n+]1cccc2ccccc21 | inconclusive: 11.2 µM [inhibitor, partial curve, poor fit] | –
COc1ccccc1NC(=S)NNC(=S)Nc1ccc(OC(F)F)cc1 | inconclusive: 31.6 µM [inhibitor, single point] | –
CCC1CN(C(=O)NCc2ccc(C)cc2)c2cc(C)ccc2O1 (stereo not drawn) | inconclusive: 12.6 µM [inhibitor, partial curve, poor fit] | –
Cc1ccc(NC(=O)c2oc3ccccc3c2NC(=O)C2CCCO2)cc1C (stereo not drawn) | inconclusive: 35.5 µM [inhibitor, single point] | –
CCN(Cc1ccncc1)C(=O)C1CCN(S(=O)(=O)c2cccs2)CC1 | inconclusive: 0.231 µM [activator, single point] | –
CN(C)S(=O)(=O)c1ccc2c(c1)N(CC(=O)NCc1ccccc1)C(=O)C1CCCCN21 (stereo not drawn) | – | inconclusive: 3.56% [activator] [at 46.1 µM]
CCOC(=O)c1oc2ccccc2c1CSc1nnnn1-c1ccc(OC)cc1 | inconclusive: 7.3 µM [inhibitor, partial curve, poor fit] | –
O=C(CSc1nnnn1C1CCCCC1)Nc1cccc(NC(=O)c2ccco2)c1 | inconclusive: 35.5 µM [inhibitor, single point] | –
CC(=O)Nc1ccc(NC(=O)CSc2nnc(NC(=O)C3CC3)s2)cc1 | inconclusive: 0.631 µM [activator, full curve] | –
Cc1cccc(CNC(=O)C2CCCN(S(=O)(=O)c3cn(C)cn3)C2)c1 (stereo not drawn) | – | inactive: 5.36% [at 46.1 µM]
CCN(CC)S(=O)(=O)c1ccc(N2CCN(CCO)CC2)nc1 | inconclusive: 0.501 µM [inhibitor, partial curve, poor fit] | –
CCOc1ccc(NC(=S)N=Nc2c(O)[nH]c3ccccc23)cc1 | inconclusive: 10 µM [inhibitor, partial curve, poor fit] | –
Cc1cc(C)c(S(=O)(=O)NCc2ccncc2)c(C)c1 | inconclusive: 6.51 µM [inhibitor, full curve] | –
CCN(CC)c1cc2c(c3c1ccn3C)C1CCC2O1 (stereo not drawn) | inconclusive: 35.3 µM [activator, single point] | –
S=C(NCCCN1CCOCC1)N1CCN(c2nc(-c3ccccc3)cs2)CC1 | inconclusive: 22.4 µM [inhibitor, single point] | –

Structure (SMILES) | Potency | activity change, negative = inhibition
O=C(c1ccc(Cl)cc1)[C@@H]1[C@@H]2C(=O)N(c3ccccc3)C(=O)[C@@H]2C2c3ccccc3C=NN21 (stereo partly drawn) | – | inactive: 9.9%
CCCCN=CC1=C(O)CC(c2ccccc2)CC1=O (stereo not drawn) | – | inactive: -23.5%
COc1ccc(C)cc1NC(=O)C(OC(=O)c1cc(C)oc1C)c1ccccc1 (stereo not drawn) | inconclusive: 11.2 µM [inhibitor, partial curve, poor fit] | –
C[C@]12C[C@@](C)(C=C1C=Cc1ccc(F)cc1)C(=O)C[C@H]2c1ccc(F)cc1 | inconclusive: 0.0299 µM [inhibitor, partial curve, poor fit] | –
Cc1ccc(C)c(C(=O)OCC(=O)Nc2ccc(N3CCOCC3)cc2)c1 | inconclusive: 1.58 µM [activator, full curve, poor fit] | –
Cc1ccc(C)c(N2CCN(C(=O)c3cc4ccc5cccnc5c4[nH]3)CC2)c1 | inconclusive: 35.5 µM [inhibitor, single point] | –
Cc1cc(O)cc(C)c1C=Cc1cncc(C(N)=O)c1 | inconclusive: 0.705 µM [inhibitor, full curve] | –
COc1ccccc1NS(=O)(=O)c1cccc(C(=O)N/N=C/c2c(C)nn(-c3ccccc3)c2N2CCCC2)c1 | inconclusive: 4.61 µM [inhibitor, full curve, poor fit] | –
Cc1ccccc1Cn1nc(C)c(NC(=O)c2cc3n(n2)C(C(F)F)CC(C(F)F)N3)c1C (stereo not drawn) | inconclusive: 35.5 µM [inhibitor, single point] | –
CCc1ccccc1NC(=O)C1(S(=O)(=O)c2ccc(Cl)cc2)CC1 | – | inactive: 20.6% [at 46.1 µM]
CCOc1ccc(NC(=O)CN(C)C(=O)c2cc(C3CC3)nn2-c2ccccc2)cc1OCC | inconclusive: 0.112 µM [inhibitor, full curve, poor fit] | –
NC(=NCCc1c[nH]c2ccccc12)NS(=O)(=O)c1cc(F)ccc1F | inconclusive: 35.5 µM [inhibitor, single point] | –
O=C(Nc1nc(-c2ccccc2)cs1)C1CCCO1 (stereo not drawn) | inconclusive: 29.1 µM [inhibitor, single point] | –
O=C(N/C(=C\c1ccco1)C(=O)N1CCCC1CO)c1ccccc1 (stereo not drawn) | inconclusive: 5.62 µM [activator, full curve, poor fit] | –
O=[N+]([O-])c1cccc(NP(=O)(N2CC2)N2CC2)c1 | inconclusive: 35.5 µM [inhibitor, single point] | –
COc1ccc(C(=O)C2CCCN(C(=O)c3c4c(nn3C)CCCC4)C2)cc1F (stereo not drawn) | inconclusive: 10 µM [inhibitor, partial curve, poor fit] | –
CCOC(=O)/C(=C\C=C\c1ccccc1)NC(=O)c1ccccc1 | inconclusive: 14.1 µM [inhibitor, partial curve, poor fit] | –
Cc1cccc2c1N(CCCOc1ccccc1)C(=O)C2=O | – | inactive: 1.18%
CCN(CCCNC(=O)CNC(=O)c1nn(-c2ccc(OC)cc2OC)c(=O)c2ccccc12)c1cccc(C)c1 | inconclusive: 35.5 µM [inhibitor, single point] | –
CC1(C)C2CCC1(CS(=O)(=O)Nc1ccc(S(=O)(=O)NC3CCCCC3)cc1)C(=O)C2 (stereo not drawn) | inconclusive: 18.4 µM [inhibitor, single point] | –
COc1ccc(-c2cc([N+](=O)[O-])ccc2OCC(=O)N(C)CC(=O)Nc2ccc(C)cc2)cc1 | inconclusive: 35.5 µM [inhibitor, single point] | –

Structure (SMILES) | Potency | activity change, negative = inhibition
C=CCC12C=C(OC)C(=O)C(C1=O)C1c3ccccc3CC12 (stereo not drawn) | inconclusive: 1.19 µM [activator, full curve, poor fit] | –
C/C(N)=C(/C#N)C(=O)CSc1nnc(-c2ccccc2Br)o1 | inconclusive: 12.6 µM [inhibitor, single point] | –
CSc1nc(N)c(C#N)c(-c2ccccc2Cl)c1C#N | inconclusive: 35.5 µM [inhibitor, single point] | –
Fc1ccc(-c2nn(-c3ccccc3)cc2CNCc2ccccc2)cc1 | inconclusive: 17.8 µM [inhibitor, single point] | –
CCN1C(N(C)CCOC)=NC(c2cccc(F)c2)C(C(=O)OC)=C1C (stereo not drawn) | inconclusive: 0.211 µM [inhibitor, full curve, poor fit] | –
CC(=O)COc1ccc2c3c(c(=O)oc2c1)CCCC3 | inconclusive: 8.2 µM [activator, partial curve] | –
CCCCCOC(=O)c1cc(=O)[nH]c2ccccc12 | – | inactive: 3.42%
CC(C(=O)Nc1ccccc1)c1ccc(-c2ccccc2)c(F)c1 (stereo not drawn) | inconclusive: 15.8 µM [inhibitor, single point] | –
COc1ccc(C(=O)OCC(=O)NC2CC2)cc1S(=O)(=O)N(C)Cc1ccccc1 | inconclusive: 3.16 µM [inhibitor, single point] | –
Clc1nc(-c2ccccn2)nc2scc(-c3ccccc3)c12 | inconclusive: 12.6 µM [inhibitor, single point] | –
CC(C)(C)CC(=O)Nc1ccc(-c2cn3cccnc3n2)cc1 | inconclusive: 35.5 µM [inhibitor, single point] | –
CCCCn1c(SCC(=O)/C(C#N)=C(\C)N)nc2ccccc2c1=O | inconclusive: 5.01 µM [inhibitor, partial curve, poor fit] | –
O=[N+]([O-])c1ccc(/C=N/Nc2nc(N3CCCCCC3)nc(N3CCCCCC3)n2)o1 | inconclusive: 31.6 µM [inhibitor, single point] | –
Cc1ccc(-c2nc3n(n2)C(c2ccccc2C)C=C(c2ccc(Cl)cc2)N3)cc1 (stereo not drawn) | inconclusive: 10 µM [inhibitor, partial curve] | –
COCc1nnc(NC(=O)c2ccccc2Oc2ccccc2)s1 | – | inactive: 4.29% [at 46.1 µM]
O=C(NCc1cccs1)C1CCC(CNS(=O)(=O)c2ccc(Br)s2)CC1 (stereo not drawn) | – | inactive: -16.8%
COc1cc(OC)cc(-c2nc3nc(C)c(CCC(=O)O)c(C)n3n2)c1 | inconclusive: 0.206 µM [activator, single point] | –
O=c1c2ccccc2nc(SCCN2CCCCC2)n1CCc1ccccc1 | inconclusive: 35.5 µM [inhibitor, single point] | –
Clc1cccc(C2Nc3cccc4cccc(c34)N2)c1Cl | – | inactive: 0.516% [at 46.1 µM]
COc1ccc(C)cc1S(=O)(=O)N(C)CC(=O)N1CCN(C)CC1 | inconclusive: 0.164 µM [activator, full curve, poor fit] | –
CCOC(=O)c1csc(-n2nc(C)cc2C(F)(F)F)n1 | inconclusive: 5.62 µM [inhibitor, single point] | –

Arranged by SMILES length (rising): five of the compounds above.
Structure (SMILES) | Potency | activity change, negative = inhibition
CC(=O)COc1ccc2c3c(c(=O)oc2c1)CCCC3 | inconclusive: 8.2 µM [activator, partial curve] | –
Clc1cccc(C2Nc3cccc4cccc(c34)N2)c1Cl | – | inactive: 0.516% [at 46.1 µM]
C=CCC12C=C(OC)C(=O)C(C1=O)C1c3ccccc3CC12 (stereo not drawn) | inconclusive: 1.19 µM [activator, full curve, poor fit] | –
CCN1C(N(C)CCOC)=NC(c2cccc(F)c2)C(C(=O)OC)=C1C (stereo not drawn) | inconclusive: 0.211 µM [inhibitor, full curve, poor fit] | –
O=[N+]([O-])c1ccc(/C=N/Nc2nc(N3CCCCCC3)nc(N3CCCCCC3)n2)o1 | inconclusive: 31.6 µM [inhibitor, single point] | –
